Laboratory results as given in paper PMC10406883.
Results are given in words; binding and its absence hold for the method and conditions named. Binding seen in cells or lysates may run through a third protein. Some results given as binding are weak or reduced against the parent protein; the word gives no strength.

Amino acid sequences for entries named in this document (tags omitted).
UniProt P08195: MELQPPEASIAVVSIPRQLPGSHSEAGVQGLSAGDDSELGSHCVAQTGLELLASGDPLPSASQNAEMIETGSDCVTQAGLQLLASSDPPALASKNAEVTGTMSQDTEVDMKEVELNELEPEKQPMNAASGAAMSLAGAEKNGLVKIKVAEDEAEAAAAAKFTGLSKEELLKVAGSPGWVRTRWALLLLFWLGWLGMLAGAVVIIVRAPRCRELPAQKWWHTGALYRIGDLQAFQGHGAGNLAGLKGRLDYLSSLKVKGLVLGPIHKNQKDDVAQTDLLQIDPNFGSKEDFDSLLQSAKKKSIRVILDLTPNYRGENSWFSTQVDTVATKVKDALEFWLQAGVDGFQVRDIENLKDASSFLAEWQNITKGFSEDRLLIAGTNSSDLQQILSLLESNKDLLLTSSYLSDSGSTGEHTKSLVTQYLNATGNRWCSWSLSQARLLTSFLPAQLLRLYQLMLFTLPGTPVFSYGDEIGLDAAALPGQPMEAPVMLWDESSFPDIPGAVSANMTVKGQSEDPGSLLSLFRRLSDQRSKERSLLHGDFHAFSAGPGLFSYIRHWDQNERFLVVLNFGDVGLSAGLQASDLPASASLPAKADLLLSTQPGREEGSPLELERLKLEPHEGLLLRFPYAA

Biological target: 4F2hc (heavy chain subunit of system Xc-, encoded by the SLC3A2 gene), endogenous (human (endogenous in PANC-1)) (UniProt P08195)
Experiment: co-IP; PANC-1 cells treated with or without RSL3

- binding: binds
B1: glycosyltransferase B3GNT3, endogenous (enzyme, UniProt Q9Y2A9 1-372)
chain: MKYLRHRRPNATLILAIGAFTLLLFSLLVSPPTCKVQEQPPAIPEALAWPTPPTRPAPAPCHANTSMVTHPDFATQPQHVQNFLLYRHCRHFPLLQDVPPSKCAQPVFLLLVIKSSPSNYVRRELLRRTWGRERKVRGLQLRLLFLVGTASNPHEARKVNRLLELEAQTHGDILQWDFHDSFFNLTLKQVLFLQWQETRCANASFVLNGDDDVFAHTDNMVFYLQDHDPGRHLFVGQLIQNVGPIRAFWSKYYVPEVVTQNERYPPYCGGGGFLLSRFTAAALRRAAHVLDIFPIDDVFLGMCLELEGLKPASHSGIRTSGVRAPSQRLSSFDPCFYRDLLLVHRFLPYEMLLMWDALNQPNLTCGNQTQIY
